# In patent publication US20040014676A1, “SRC kinase inhibitors useful for treating osteoporosis” (priority 2001, published 2004):
# Chains of the proteins cited; added tags and fusions are not shown.
# UniProt P12931, whole entry: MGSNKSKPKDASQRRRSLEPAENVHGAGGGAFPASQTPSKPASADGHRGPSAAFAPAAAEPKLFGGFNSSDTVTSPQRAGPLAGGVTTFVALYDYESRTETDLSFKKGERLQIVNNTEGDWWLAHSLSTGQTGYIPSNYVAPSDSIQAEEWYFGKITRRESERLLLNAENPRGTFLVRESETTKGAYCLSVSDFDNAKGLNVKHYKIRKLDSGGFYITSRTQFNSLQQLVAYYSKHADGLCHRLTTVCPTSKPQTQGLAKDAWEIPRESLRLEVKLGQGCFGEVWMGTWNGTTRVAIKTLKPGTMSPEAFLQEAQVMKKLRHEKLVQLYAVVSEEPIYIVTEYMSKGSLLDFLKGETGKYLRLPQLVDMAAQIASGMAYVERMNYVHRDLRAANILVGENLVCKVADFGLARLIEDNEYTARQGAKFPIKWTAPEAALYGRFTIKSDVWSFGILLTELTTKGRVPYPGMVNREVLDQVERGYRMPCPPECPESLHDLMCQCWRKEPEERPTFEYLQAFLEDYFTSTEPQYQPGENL
# Molecular target: Src kinase (Homo sapiens, UniProt P12931)
# Experiment: Phosphorylation assay of Src kinase inhibitors (radiometric, 96 well filter plate)
# Type: biochemical
# Conditions: duplicates, tested in the range of 400-0.098 µM; 10 µM peptide substrate (FIYGAFKKKKNH2), 5 µM unlabeled ATP, room temperature 30 min
# Method: The present invention provides novel compounds of Formulae I through XVIII discussed above. The following compounds which fall within Formulae I through XVIII are characterized by structure, IUPAC name and activity using phosphorylation assay for protein tyrosine Src kinase.
# Phosphorylation Assay of Src Kinase Inhibitors
# The activity of Src kinase was measured in a 96 well plate phosphorylation assay where the transfer of gamma phosphate from ATP to peptide substrate was measured radiometrically. The percentage inhibition and IC50 values were calculated from duplicates of samples tested in the range of 400-0.098 M (2 or 4 fold dilutions). Ki values were determined experimentally for some of the inhibitors. The phosphocellulose filter plates (Millipore catalog #MAPH NOB) were prewet prior to the phosphorylation assay by addition of 100 1 per well of 30 mM MES buffer+0.4 mg/ml BSA. After a 20-minute incubation, the buffer was removed completely via a Millipore vacuum manifold. The phosphorylation assay was then set up in the filter plates in a total volume per well of 60 1. […] Finally, the filter plate was placed into a Packard plate adapter (Packard catalog #600517B), 35 1 of Microscint-20 (Packard catalog #6013621) was added to each well, the plate was sealed (TopSeal A sealers; Packard catalog #6005185) and counted on a Packard TopCount.
compound,measurement,value
N#Cc1ccc(C[C@H](N)C(=O)NCCCCOc2cc3ccccc3cc2C(=O)NCC(N)=O)cc1,pIC50,5.52

# pIC50: −log10 of the molar value. Structures were worked out from names or drawings and are uncertain.
